# Data as given in PMC6117270.
# These are yes or no findings as the source states them, for the method shown. In cells and extracts the contact can be indirect. Some entries that bind do so weakly or less than the wild type. For some assays here: Where a sequence is shown, tags or fusion partners need not be part of it.
# T1: non-POU domain containing octamer binding (NONO) protein (human (endogenous in NCI-N87, AGS and MKN-45)) (UniProt Q15233)
# T1 sequence: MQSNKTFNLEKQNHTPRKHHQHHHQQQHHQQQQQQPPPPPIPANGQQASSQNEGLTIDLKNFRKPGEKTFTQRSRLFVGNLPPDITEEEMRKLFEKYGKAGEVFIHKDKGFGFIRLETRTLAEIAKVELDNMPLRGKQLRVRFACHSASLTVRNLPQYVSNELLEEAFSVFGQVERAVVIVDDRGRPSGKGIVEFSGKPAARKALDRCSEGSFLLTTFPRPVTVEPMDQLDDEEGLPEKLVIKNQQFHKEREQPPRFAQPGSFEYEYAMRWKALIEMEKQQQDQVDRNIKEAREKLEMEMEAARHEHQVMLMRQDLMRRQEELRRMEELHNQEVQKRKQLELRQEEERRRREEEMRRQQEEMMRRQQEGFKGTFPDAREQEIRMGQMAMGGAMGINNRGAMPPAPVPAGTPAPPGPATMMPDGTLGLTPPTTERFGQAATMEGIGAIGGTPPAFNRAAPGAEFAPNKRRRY
# T2: FLAG-tagged NONO protein (human) (UniProt Q15233)
# T2 sequence: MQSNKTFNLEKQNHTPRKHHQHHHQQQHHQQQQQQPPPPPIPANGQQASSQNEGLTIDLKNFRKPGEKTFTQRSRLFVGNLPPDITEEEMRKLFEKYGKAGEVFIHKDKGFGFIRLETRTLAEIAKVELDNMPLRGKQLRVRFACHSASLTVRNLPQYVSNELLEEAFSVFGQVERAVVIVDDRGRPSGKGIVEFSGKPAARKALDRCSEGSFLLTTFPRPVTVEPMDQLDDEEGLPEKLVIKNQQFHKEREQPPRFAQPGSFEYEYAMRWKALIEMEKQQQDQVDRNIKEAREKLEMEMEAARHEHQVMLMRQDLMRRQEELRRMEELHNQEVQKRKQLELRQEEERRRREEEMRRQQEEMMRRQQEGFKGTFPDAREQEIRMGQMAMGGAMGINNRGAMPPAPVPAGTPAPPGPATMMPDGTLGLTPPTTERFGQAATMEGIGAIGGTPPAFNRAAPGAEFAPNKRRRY
# B1: Ets related gene (ERG) (protein, UniProt P11308-3 1-486)
# chain: MIQTVPDPAAHIKEALSVVSEDQSLFECAYGTPHLAKTEMTASSSSDYGQTSKMSPRVPQQDWLSQPPARVTIKMECNPSQVNGSRNSPDECSVAKGGKMVGSPDTVGMNYGSYMEEKHMPPPNMTTNERRVIVPADPTLWSTDHVRQWLEWAVKEYGLPDVNILLFQNIDGKELCKMTKDDFQRLTPSYNADILLSHLHYLRETPLPHLTSDDVDKALQNSPRLMHARNTGGAAFIFPNTSVYPEATQRITTRPDLPYEPPRRSAWTGHGHPTPQSKAAQPSPSTVPKTEDQRPQLDPYQILGPTSSRLANPGSGQIQLWQFLLELLSDSSNSSCITWEGTNGEFKMTDPDEVARRWGERKSKPNMNYDKLSRALRYYYDKNIMTKVHGKRYAYKFDFHGIAQALQPHPPESSLYKYPSDLPYMGSYHAHPQKMNFVAPHPPALPVTSSSFFAAPNPYWNSPTGGIYPNTRLPTSHMPSHLGTYY
# B2: hemagglutinin (HA)-tagged ERG (protein, UniProt P11308-3 1-486)
# chain: MIQTVPDPAAHIKEALSVVSEDQSLFECAYGTPHLAKTEMTASSSSDYGQTSKMSPRVPQQDWLSQPPARVTIKMECNPSQVNGSRNSPDECSVAKGGKMVGSPDTVGMNYGSYMEEKHMPPPNMTTNERRVIVPADPTLWSTDHVRQWLEWAVKEYGLPDVNILLFQNIDGKELCKMTKDDFQRLTPSYNADILLSHLHYLRETPLPHLTSDDVDKALQNSPRLMHARNTGGAAFIFPNTSVYPEATQRITTRPDLPYEPPRRSAWTGHGHPTPQSKAAQPSPSTVPKTEDQRPQLDPYQILGPTSSRLANPGSGQIQLWQFLLELLSDSSNSSCITWEGTNGEFKMTDPDEVARRWGERKSKPNMNYDKLSRALRYYYDKNIMTKVHGKRYAYKFDFHGIAQALQPHPPESSLYKYPSDLPYMGSYHAHPQKMNFVAPHPPALPVTSSSFFAAPNPYWNSPTGGIYPNTRLPTSHMPSHLGTYY
# What was measured:
# [1] = molecular target: T1, non-POU domain containing octamer binding (NONO) protein (human (endogenous in NCI-N87, AGS and MKN-45)); experiment: co-IP; endogenous proteins, IP and western blot in NCI-N87 and AGS cells; also NCI-N87 and MKN-45 cells stably transfected with mock, pancEts-1, scramble shRNA or sh-pancEts-1 #2 (interaction increased and decreased, respectively)
# [2] = molecular target: T2, FLAG-tagged NONO protein (human); experiment: co-IP; HA-tagged ERG and FLAG-tagged NONO and their truncates co-transfected into NCI-N87 cells; IP (antibodies for NONO, HA or FLAG) and western blot
Binder,binding [1],binding [2]
B1,binds,
B2,,binds
